{
  "source": "PubChem BioAssay AID720535",
  "about": "(National Center for Advancing Translational Sciences (NCATS), 2013)",
  "note": "About 420 (26%) of roughly 1,600 compounds were called active. The shares of active, inactive and inconclusive entries below differ from those in the screen. Calls come from the whole dose curve; as a rule, active = well fitted inhibition curve with a large enough effect; inconclusive = small, poorly fitted or top-dose-only effect; inactive = flat fitted curve, though single readings scatter. A potency beside an inconclusive call is a rough fit, not a confirmed value.",
  "data": [
    {"assay": "qHTS for Inhibitors of TGF-b: Cytotox Counterscreen for Cherry Picks; note: nearly all actives have a fitted effect of over 70% in size; note: potency is the fitted concentration of half-maximal effect", "settings": "HepG2 CAGA-GFP viability, ATP luminescence, 18 h, cells stimulated with TGF-beta, 500 pg/mL; series mostly up to 46.1 µM", "outline": "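Cells: HepG2 CAGA-GFP, 1000/well, DMEM + 1% FBS. Compound by pin tool; TGF-beta 500 pg/mL final; 18 h, 37 °C. Viability via ATP luminescence; concentration-response curves fitted and curve-classed.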", "values": [
      {"compound": "O=C(C1CCC(CNS(=O)(=O)c2cccc3nsnc23)CC1)N1CC=C(c2ccccc2)CC1", "note": "(stereo unspecified)", "Potency": "inconclusive: 10.3 µM [inhibitor, partial curve]"},
      {"compound": "O=C(/C=C/c1cccc([N+](=O)[O-])c1)c1cccs1", "Potency": "active: 18.4 µM"},
      {"compound": "COc1ccc(-c2cc3nc(NCC4CCCCC4)n(C)c(=O)c3s2)cc1OC", "Potency": "inconclusive: 23.1 µM [inhibitor, single point]"},
      {"compound": "CC(C)C[C@H]1CN=C(Nc2ccccc2)N1CCc1cccc(F)c1", "Potency": "inconclusive: 9.2 µM [inhibitor, partial curve]"},
      {"compound": "Cc1cc(C)c(CN2CCN(C(=O)Cn3cnc4c(OCc5ccccc5)ncnc43)CC2)c(C)c1", "Potency": "inconclusive: 1.64 µM [inhibitor, full curve]"},
      {"compound": "COc1cc(OC)cc(C(=O)N[C@H](C(=O)OCc2cc(=O)oc3cc(C)ccc23)C(C)C)c1", "Potency": "inactive"},
      {"compound": "O=C1C(F)=CC(COC(c2ccccc2)(c2ccccc2)c2ccccc2)OC1n1cc(F)c(=O)[nH]c1=O", "note": "(stereo unspecified)", "Potency": "active: 8.2 µM"},
      {"compound": "O=C(O)c1ccc(/C=C2\\COc3ccccc3C2=O)cc1", "Potency": "active: 16.4 µM"},
      {"compound": "O=C(Nc1ccc(C(F)(F)F)cc1)N1CCN(c2ccnc3cc(Cl)ccc23)CC1", "Potency": "inconclusive: 16.4 µM [inhibitor, partial curve]"},
      {"compound": "COc1ccc(NC(=O)N(C)C[C@H]2Oc3c(NC(=O)c4nc5ccccc5s4)cccc3C(=O)N([C@@H](C)CO)C[C@H]2C)cc1", "Potency": "inactive"},
      {"compound": "CC[C@]12c3[nH]c4ccc(Cl)cc4c3CCN1C(=O)[C@@H](CC(=O)NCC13CC4CC(CC(C4)C1)C3)C[C@@H]2C(=O)N1CCN(C(=O)C2CC2)CC1", "Potency": "inconclusive: 25.9 µM [inhibitor, single point]"},
      {"compound": "Cc1ccccc1C(=O)c1c[nH]c(C(=O)N2CCN(c3ccccc3F)CC2)c1", "Potency": "inactive"},
      {"compound": "COCCN(C(=O)COC(=O)c1ccccc1Nc1ccccc1)c1c(N)n(Cc2ccccc2)c(=O)[nH]c1=O", "Potency": "inactive"},
      {"compound": "Nc1cc2[nH]c(=O)c3ccccc3c2cc1Br", "Potency": "active: 1.46 µM"},
      {"compound": "CCC[C@H]1NC(=O)[C@H](C)N(C)C(=O)C(C)(C)C(=O)C(C)NC(=O)[C@H](Cc2ccc(OC)cc2)N(C)C(=O)[C@H](C(C)C)N(C)C(=O)CNC(=O)[C@H](CC(C)C)N(C)C(=O)CNC(=O)[C@H]([C@@H](C)CC)OC(=O)[C@H]1C", "note": "(stereo partly specified)", "Potency": "inconclusive: 0.731 µM [inhibitor, full curve]"},
      {"compound": "Cc1ccc(Nc2nc(-c3ccncc3)nc3ccccc23)cc1", "Potency": "inconclusive: 2.06 µM [inhibitor, full curve]"},
      {"compound": "Cc1ccc(S(=O)(=O)N2CC=C(c3ccc(F)cc3)CC2)cc1", "Potency": "inactive"},
      {"compound": "COc1ccc(S(=O)(=O)N2CCCCCC2)cc1C(=O)N(C)Cc1ccc(Cl)cc1Cl", "Potency": "inactive"},
      {"compound": "Cc1ccc(CNc2nc(NCc3ccccc3)nc3ccsc23)c(C)c1", "Potency": "inconclusive: 16.4 µM [inhibitor, single point]"},
      {"compound": "C=CCC[C@@H](Cc1ccc(F)cc1)C(=O)OC[C@@H](NC(=O)[C@@H](CC=C)CC(=O)N(CCO)Cc1ccccc1)c1ccccc1", "Potency": "inactive"},
      {"compound": "C[C@H](CO)N1C[C@H](C)[C@@H](CN(C)C(=O)Nc2ccc(C(F)(F)F)cc2)Oc2ccc(NS(=O)(=O)c3ccccc3)cc2C1=O", "Potency": "inactive"},
      {"compound": "CN(c1ccccc1)S(=O)(=O)c1ccc(C(=O)N2CCN(c3ccccc3Cl)CC2)cc1", "Potency": "inactive"},
      {"compound": "COc1cccc(CNc2nc3cc(-c4ccsc4)sc3c(=O)n2C)c1OC", "Potency": "inconclusive: 5.8 µM [inhibitor, partial curve]"},
      {"compound": "CCN(CC)c1ccc(Nc2nc(N3CCOCC3)c3ccccc3n2)cc1", "Potency": "active: 20.6 µM"},
      {"compound": "O=C(NC(=S)Nc1ccc([N+](=O)[O-])cc1O)C1CCCCC1", "Potency": "inconclusive: 11.6 µM [inhibitor, partial curve]"},
      {"compound": "CCCC[C@H]1COCCS(=O)(=O)N1Cc1ccc(Br)cc1", "Potency": "inactive"},
      {"compound": "CCN(CC)C(=O)[C@H]1C[C@H](CC(=O)NCc2cccc(C(F)(F)F)c2)C(=O)N2CCc3c([nH]c4ccc(Cl)cc34)[C@]12C", "Potency": "inconclusive: 23.1 µM [inhibitor, single point]"},
      {"compound": "O=[N+]([O-])c1cccc(NC(=S)Nc2nc(-c3ccccc3Cl)cs2)c1", "Potency": "active: 6.51 µM"},
      {"compound": "Cc1cccc(CNc2ccc(C(CC(N)=O)NC(=O)Cc3cccc4ccccc34)cc2[N+](=O)[O-])c1", "note": "(stereo unspecified)", "Potency": "inconclusive: 29.1 µM [inhibitor, single point]"},
      {"compound": "O=C1Nc2ccccc2N=C(c2ccc3c(c2)OCO3)C1N(C(=O)c1ccnc2ccccc12)c1ccccc1", "note": "(stereo unspecified)", "Potency": "inactive"},
      {"compound": "C[C@@H]1CCCCO[C@H](CN(C)Cc2ccc(Cl)c(Cl)c2)[C@H](C)CN([C@@H](C)CO)C(=O)c2cc(NC(=O)Nc3ccc(F)cc3)ccc2O1", "Potency": "inconclusive: 10.3 µM [inhibitor, partial curve]"},
      {"compound": "Cc1nnc(SCC(=O)N/N=C/c2cn(-c3ccccc3)nc2-c2ccccc2)n1-c1ccccc1", "Potency": "inactive"},
      {"compound": "COc1ccc(C(=O)C(CN2CCOCC2)c2ccccc2)cc1F", "note": "(stereo unspecified)", "Potency": "active: 14.6 µM"},
      {"compound": "COc1ccc([C@H]2CC(=O)C=C(c3ccc(Cl)c(C(F)(F)F)c3)C2)cc1", "Potency": "inconclusive: 23.1 µM [inhibitor, partial curve, poor fit]"},
      {"compound": "Nc1cc2nn(-c3ccccc3)nc2cc1Cl", "Potency": "active: 1.84 µM"},
      {"compound": "COc1cccc2c1C(CO)N1C(C#N)C3CC(C(=O)O)C(C1C2)N3C", "note": "(stereo unspecified)", "Potency": "active: 0.517 µM"},
      {"compound": "C(=C\\c1ccccc1)/CN1CCN(C(c2ccnc3ccccc23)c2nnnn2-c2ccc3c(c2)OCCO3)CC1", "note": "(stereo unspecified)", "Potency": "inactive"},
      {"compound": "Cc1cc(C)cc(NC(=O)Cn2c(=O)oc3cc(S(=O)(=O)N4CCC(C)CC4)ccc32)c1", "Potency": "inactive"},
      {"compound": "O=[N+]([O-])c1ccc(NS(=O)(=O)c2ccc(Cl)c(Cl)c2)cc1", "Potency": "active: 7.31 µM"},
      {"compound": "CC(C)C[C@H]1CN([C@@H](CC(C)C)CN2CCC[C@@H]2CN2C(=S)NC[C@@H]2Cc2ccc(O)cc2)C(=S)N1CCc1ccccc1", "Potency": "inconclusive: 25.9 µM [inhibitor, single point]"},
      {"compound": "CN(C(=O)/C=C/c1ccc([N+](=O)[O-])s1)c1ccccc1", "Potency": "inconclusive: 20.6 µM [inhibitor, single point]"}
    ]}
  ]
}
